The source of these data is article doi:10.1101/2021.10.14.464392.

Chains of the proteins cited; added tags and fusions are not shown. Lines headed by an entry give the natural chain unless they say otherwise; changes in a name come on top. Residues count along the entry.
UniProt Q4VCS5, 410-1084: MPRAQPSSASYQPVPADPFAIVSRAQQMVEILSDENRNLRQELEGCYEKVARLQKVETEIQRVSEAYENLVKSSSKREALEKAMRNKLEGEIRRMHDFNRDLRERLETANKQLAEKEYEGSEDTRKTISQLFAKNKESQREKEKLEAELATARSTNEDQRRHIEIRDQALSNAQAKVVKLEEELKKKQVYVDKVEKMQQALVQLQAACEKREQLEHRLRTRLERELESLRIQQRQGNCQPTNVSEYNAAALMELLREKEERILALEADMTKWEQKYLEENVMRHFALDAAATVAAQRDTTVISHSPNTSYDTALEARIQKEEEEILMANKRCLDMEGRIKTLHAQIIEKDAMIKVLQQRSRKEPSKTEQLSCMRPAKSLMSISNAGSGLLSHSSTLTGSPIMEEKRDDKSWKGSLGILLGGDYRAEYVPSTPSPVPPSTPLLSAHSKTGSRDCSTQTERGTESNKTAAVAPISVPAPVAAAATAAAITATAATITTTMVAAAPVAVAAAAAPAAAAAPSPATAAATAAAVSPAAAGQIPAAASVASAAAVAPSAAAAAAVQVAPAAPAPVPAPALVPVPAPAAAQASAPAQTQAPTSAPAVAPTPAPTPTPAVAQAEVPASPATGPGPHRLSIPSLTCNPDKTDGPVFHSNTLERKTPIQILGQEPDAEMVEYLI
UniProt Q4VCS5, 410-654: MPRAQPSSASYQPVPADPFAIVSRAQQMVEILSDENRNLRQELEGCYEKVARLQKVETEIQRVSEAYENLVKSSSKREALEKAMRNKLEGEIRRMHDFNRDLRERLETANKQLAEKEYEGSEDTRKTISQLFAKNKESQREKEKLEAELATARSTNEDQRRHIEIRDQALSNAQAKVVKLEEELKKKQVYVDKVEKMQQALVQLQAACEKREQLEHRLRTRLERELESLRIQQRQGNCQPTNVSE
UniProt Q4VCS5, whole entry: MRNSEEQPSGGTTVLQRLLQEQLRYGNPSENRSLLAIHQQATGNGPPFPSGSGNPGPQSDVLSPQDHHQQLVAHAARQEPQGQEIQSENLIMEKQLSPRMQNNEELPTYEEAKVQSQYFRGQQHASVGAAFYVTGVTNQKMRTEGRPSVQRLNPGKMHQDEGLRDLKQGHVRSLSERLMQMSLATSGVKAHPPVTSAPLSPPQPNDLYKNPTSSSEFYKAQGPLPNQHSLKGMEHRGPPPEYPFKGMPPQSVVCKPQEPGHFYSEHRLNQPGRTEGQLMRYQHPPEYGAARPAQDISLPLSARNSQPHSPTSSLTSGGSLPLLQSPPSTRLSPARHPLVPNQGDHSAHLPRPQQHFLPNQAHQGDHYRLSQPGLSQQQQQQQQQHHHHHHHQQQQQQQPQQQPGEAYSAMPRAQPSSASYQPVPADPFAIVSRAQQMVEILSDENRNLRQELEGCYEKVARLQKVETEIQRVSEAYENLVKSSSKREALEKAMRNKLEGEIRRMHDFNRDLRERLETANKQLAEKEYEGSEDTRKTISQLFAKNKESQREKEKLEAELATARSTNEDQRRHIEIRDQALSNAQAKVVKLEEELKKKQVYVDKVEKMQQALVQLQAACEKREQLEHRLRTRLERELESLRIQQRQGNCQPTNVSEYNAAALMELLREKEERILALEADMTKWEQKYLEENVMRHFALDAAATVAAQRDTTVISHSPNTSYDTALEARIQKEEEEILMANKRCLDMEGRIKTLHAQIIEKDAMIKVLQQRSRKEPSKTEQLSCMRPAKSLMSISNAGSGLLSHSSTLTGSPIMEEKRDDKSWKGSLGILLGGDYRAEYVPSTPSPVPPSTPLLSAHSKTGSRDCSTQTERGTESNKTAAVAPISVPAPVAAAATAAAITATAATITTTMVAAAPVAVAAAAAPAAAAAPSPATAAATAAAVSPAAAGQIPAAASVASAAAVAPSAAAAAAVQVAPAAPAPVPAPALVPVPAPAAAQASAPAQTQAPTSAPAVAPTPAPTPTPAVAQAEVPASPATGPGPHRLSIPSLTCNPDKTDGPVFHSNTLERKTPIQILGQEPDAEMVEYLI
UniProt Q4VCS5, 444-654: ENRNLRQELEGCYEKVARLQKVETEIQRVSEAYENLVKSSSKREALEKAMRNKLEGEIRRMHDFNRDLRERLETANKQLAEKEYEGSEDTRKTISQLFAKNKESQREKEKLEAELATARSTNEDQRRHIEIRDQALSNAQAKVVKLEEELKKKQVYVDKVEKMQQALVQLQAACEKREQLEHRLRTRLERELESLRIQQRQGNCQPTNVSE
UniProt Q7KZI7, whole entry: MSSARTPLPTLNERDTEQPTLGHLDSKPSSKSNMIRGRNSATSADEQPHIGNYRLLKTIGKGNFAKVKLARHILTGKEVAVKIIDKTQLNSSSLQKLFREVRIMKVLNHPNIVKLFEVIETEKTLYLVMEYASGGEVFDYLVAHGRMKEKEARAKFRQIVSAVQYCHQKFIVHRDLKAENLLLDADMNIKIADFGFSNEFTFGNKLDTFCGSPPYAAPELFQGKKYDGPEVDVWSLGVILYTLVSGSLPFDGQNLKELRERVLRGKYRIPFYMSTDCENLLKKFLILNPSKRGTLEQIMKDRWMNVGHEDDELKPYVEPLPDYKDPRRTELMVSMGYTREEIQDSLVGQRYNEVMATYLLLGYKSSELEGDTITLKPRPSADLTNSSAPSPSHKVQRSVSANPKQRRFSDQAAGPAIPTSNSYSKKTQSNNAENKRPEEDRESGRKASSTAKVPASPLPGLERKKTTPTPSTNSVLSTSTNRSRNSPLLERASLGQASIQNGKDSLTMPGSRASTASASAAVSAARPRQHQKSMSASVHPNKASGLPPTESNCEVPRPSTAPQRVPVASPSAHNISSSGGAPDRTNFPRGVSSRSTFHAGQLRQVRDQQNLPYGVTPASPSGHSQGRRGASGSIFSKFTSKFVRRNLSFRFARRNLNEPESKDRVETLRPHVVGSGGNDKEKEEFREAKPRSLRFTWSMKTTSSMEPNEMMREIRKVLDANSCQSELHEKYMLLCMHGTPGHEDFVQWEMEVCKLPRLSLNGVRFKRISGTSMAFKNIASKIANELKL

Some targets named below: GFP-KIF13B (UniProt Q9NQT8); GFP-Tail 11 (UniProt Q9NQT8); FLAG-Ap80-NB (UniProt Q4VCS5); FLAG-Ap80-B (UniProt Q4VCS5).
What all share (assay): co-IP
In experiment [1] the target is FLAG-Ap80 (UniProt Q4VCS5).
Experiment [2] addresses FLAG-Ap130 (UniProt Q4VCS5).
The target of experiment [3] is FLAG-Ap80 (UniProt Q4VCS5). This is another data set of the same source.
For experiment [4], the target named is FLAG-Ap130 (UniProt Q4VCS5). This is another data set of the same source.

Read-outs that look alike come from different tables or passages of the source. These are yes or no findings as the source states them, for the method shown. In cells and extracts the contact can be indirect. Some results given as binding are weak or reduced against the parent protein; the word gives no strength. For some assays here: Tags and fused reporters may be left off the sequences shown.

Turning to FLAG-Ap80 (from UniProt Q4VCS5-2 1-675), in the experiment with GFP-KIF13B, the binding entry is listed as “binds”.

Regarding “FLAG-Ap80-NB (from UniProt Q4VCS5-2 1-245) (domain or fragment)”, the binding entry with GFP-Tail 11 was “binds”.

With GFP-MARK2 (from UniProt Q7KZI7 1-788), the binding result in the experiment with FLAG-Ap80 [1] is reported as “no binding”.

As for “GFP-Tail 11 (from UniProt Q9NQT8 561-1500) (domain or fragment)”, the binding result in the experiment with FLAG-Ap80-NB is “binds”.

On to KIF13B-HA (from UniProt Q9NQT8 1-1826), for which the values for the binding entry with FLAG-Ap130 [2] and in the experiment with FLAG-Ap80 [1] were “no binding” and “binds”, respectively.

For the molecule “KIF13B-Δmotor-HA (from UniProt Q9NQT8 393-1826) (domain or fragment)”, the binding result in the experiment with FLAG-Ap80 [1] is recorded as “binds”; with FLAG-Ap80-B it was “no binding”; with FLAG-Ap80-NB, “binds”.

B1: HA-PALS1 (protein, UniProt Q8N3R9 1-675)
chain: MTTSHMNGHVTEESDSEVKNVDLASPEEHQKHREMAVDCPGDLGTRMMPIRRSAQLERIRQQQEDMRRRREEEGKKQELDLNSSMRLKKLAQIPPKTGIDNPMFDTEEGIVLESPHYAVKILEIEDLFSSLKHIQHTLVDSQSQEDISLLLQLVQNKDFQNAFKIHNAITVHMNKASPPFPLISNAQDLAQEVQTVLKPVHHKEGQELTALLNTPHIQALLLAHDKVAEQEMQLEPITDERVYESIGQYGGETVKIVRIEKARDIPLGATVRNEMDSVIISRIVKGGAAEKSGLLHEGDEVLEINGIEIRGKDVNEVFDLLSDMHGTLTFVLIPSQQIKPPPAKETVIHVKAHFDYDPSDDPYVPCRELGLSFQKGDILHVISQEDPNWWQAYREGDEDNQPLAGLVPGKSFQQQREAMKQTIEEDKEPEKSGKLWCAKKNKKKRKKVLYNANKNDDYDNEEILTYEEMSLYHQPANRKRPIILIGPQNCGQNELRQRLMNKEKDRFASAVPHTTRSRRDQEVAGRDYHFVSRQAFEADIAAGKFIEHGEFEKNLYGTSIDSVRQVINSGKICLLSLRTQSLKTLRNSDLKPYIIFIAPPSQERLRALLAKEGKNPKPEELREIIEKTREMEQNNGHYFDTAIVNSDLDKAYQELLRLINKLDTEPQWVPSTWLR
Take B1: the binding entry with FLAG-Ap80 [3] is listed as “binds”.

B2: KIF13B-Δmotor-HA (domain or fragment, UniProt Q9NQT8 393-1826)
chain: LKDRLEESEKLIQEMTVTWEEKLRKTEEIAQERQKQLESLGISLQSSGIKVGDDKCFLVNLNADPALNELLVYYLKEHTLIGSANSQDIQLCGMGILPEHCIIDITSEGQVMLTPQKNTRTFVNGSSVSSPIQLHHGDRILWGNNHFFRLNLPKKKKKAEREDEDQDPSMKNENSSEQLDVDGDSSSEVSSEVNFNYEYAQMEVTMKALGSNDPMQSILNSLEQQHEEEKRSALERQRLMYEHELEQLRRRLSPEKQNCRSMDRFSFHSPSAQQRLRQWAEEREATLNNSLMRLREQIVKANLLVREANYIAEELDKRTEYKVTLQIPASSLDANRKRGSLLSEPAIQVRRKGKGKQIWSLEKLDNRLLDMRDLYQEWKECEEDNPVIRSYFKRADPFYDEQENHSLIGVANVFLESLFYDVKLQYAVPIINQKGEVAGRLHVEVMRLSGDVGERIAGGDEVAEVSFEKETQENKLVCMVKILQATGLPQHLSHFVFCKYSFWDQQEPVIVAPEVDTSSSSVSKEPHCMVVFDHCNEFSVNITEDFIEHLSEGALAIEVYGHKINDPRKNPALWDLGIIQAKTRSLRDRWSEVTRKLEFWVQILEQNENGEYCPVEVISAKDVPTGGIFQLRQGQSRRVQVEVKSVQESGTLPLMEECILSVGIGCVKVRPLRAPRTHETFHEEEEDMDSYQDRDLERLRRKWLNALTKRQEYLDQQLQKLVSKRDKTEDDADREAQLLEMRLTLTEERNAVMVPSAGSGIPGAPAEWTPVPGMETHIPVIFLDLNADDFSSQDNLDDPEAGGWDATLTGEEEEEFFELQIVKQHDGEVKAEASWDSAVHGCPQLSRGTPVDERLFLIVRVTVQLSHPADMQLVLRKRICVNVHGRQGFAQSLLKKMSHRSSIPGCGVTFEIVSNIPEDAQGVEEREALARMAANVENPASADSEAYIEKYLRSVLAVENLLTLDRLRQEVAVKEQLTGKGKLSRRSISSPNVNRLSGSRQDLIPSYSLGSNKGRWESQQDVSQTTVSRGIAPAPALSVSPQNNHSPDPGLSNLAASYLNPVKSFVPQMPKLLKSLFPVRDEKRGKRPSPLAHQPVPRIMVQSASPDIRVTRMEEAQPEMGPDVLVQTMGAPALKICDKPAKVPSPPPVIAVTAVTPAPEAQDGPPSPLSEASSGYFSHSVSTATLSDALGPGLDAAAPPGSMPTAPEAEPEAPISHPPPPTAVPAEEPPGPQQLVSPGRERPDLEAPAPGSPFRVRRVRASELRSFSRMLAGDPGCSPGAEGNAPAPGAGGQALASDSEEADEVPEWLREGEFVTVGAHKTGVVRYVGPADFQEGTWVGVELDLPSGKNDGSIGGKQYFRCNPGYGLLVRPSRVRRATGPVRRRSTGLRLGAPEARRSATLSGSATNLASLTAALAKADRSHKNPENRKSWAS
As to B2, the binding result in the experiment with FLAG-Ap130 [4] is listed as “no binding”.
